Reference: PubChem BioAssay AID1259308 (NCATS, 2017)
Assay: 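Candidate targets for better recombinant protein yield in mammalian cells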 (primary screen). Cells: human HEK293 embryonic kidney cells stably expressing firefly luciferase (HEK-CMV-Luc2-Hygro). Reagents: single siRNA against human genes, 0.8 pmol siRNA per well. Duration: 72 h. Measurement: 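Luciferase light (ONE-Glo) measured on one replicate plate set and viability (CellTiter-Glo) on the other, scaled to a negative control siRNA, with robust z-scores and luciferase per cell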. Reading the numbers: total luciferase, z-score: higher = more reporter protein produced. Hit rule: 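Active when the median/MAD z-score for overall luciferase is greater than 3; a gene was taken forward for validation with new siRNAs if at least two of its three siRNAs passed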. Calls: active = raised luciferase; inactive = no rise.
Shown is one part, drawn at random, of about 59,000 reagents. About 1,510 of all reagents (2.6%) were called active. 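Calls use total luciferase alone and ignore viability, so some active siRNAs may act by altering cell number.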 The numbers tell different reagents against one gene apart. Further read-outs or replicates are left out here.

gene knocked down | siRNA no. | total luciferase, z-score | outcome
MYCN | 1 | -0.16 | inactive
MYCN | 2 | 0.0565 | inactive
MYCN | 3 | 0.908 | inactive
TYW2 | 1 | 2.17 | inactive
TYW2 | 2 | 0.368 | inactive
TYW2 | 3 | 0.39 | inactive
NLE1 | 1 | -0.0828 | inactive
NLE1 | 2 | 1.14 | inactive
NLE1 | 3 | -0.823 | inactive
DCUN1D2 | 1 | 0.347 | inactive
DCUN1D2 | 2 | -0.527 | inactive
DCUN1D2 | 3 | -0.232 | inactive
VAMP3 | 1 | 0.561 | inactive
VAMP3 | 2 | 1.98 | inactive
VAMP3 | 3 | -0.645 | inactive
SOSTDC1 | 1 | 0.897 | inactive
SOSTDC1 | 2 | 0.379 | inactive
SOSTDC1 | 3 | 0.897 | inactive
DYNC1I1 | 1 | 0.152 | inactive
DYNC1I1 | 2 | 0.705 | inactive
DYNC1I1 | 3 | -0.416 | inactive
NEUROG3 | 1 | -0.0327 | inactive
NEUROG3 | 2 | -0.285 | inactive
NEUROG3 | 3 | 1.24 | inactive
GPRC5C | 1 | 0.675 | inactive
GPRC5C | 2 | 2.84 | inactive
GPRC5C | 3 | 1.69 | inactive
MAGED1 | 1 | -0.0946 | inactive
MAGED1 | 2 | 0.0478 | inactive
MAGED1 | 3 | -1.93 | inactive
RNF157 | 1 | -0.237 | inactive
RNF157 | 2 | 0.127 | inactive
RNF157 | 3 | -0.119 | inactive
CADPS2 | 1 | 0.0235 | inactive
CADPS2 | 2 | -0.557 | inactive
CADPS2 | 3 | 2.11 | inactive
NDUFAB1 | 1 | 1.84 | inactive
NDUFAB1 | 2 | -2.15 | inactive
NDUFAB1 | 3 | -2.12 | inactive
REG3A | 1 | 0.427 | inactive
REG3A | 2 | 0.499 | inactive
REG3A | 3 | 0.181 | inactive
UBE2L3 | 1 | -0.0637 | inactive
UBE2L3 | 2 | -0.257 | inactive
UBE2L3 | 3 | 1.77 | inactive

Next part; the last 9 above are carried over.
gene knocked down | siRNA no. | total luciferase, z-score | outcome
NDUFAB1 | 1 | 1.84 | inactive
NDUFAB1 | 2 | -2.15 | inactive
NDUFAB1 | 3 | -2.12 | inactive
REG3A | 1 | 0.427 | inactive
REG3A | 2 | 0.499 | inactive
REG3A | 3 | 0.181 | inactive
UBE2L3 | 1 | -0.0637 | inactive
UBE2L3 | 2 | -0.257 | inactive
UBE2L3 | 3 | 1.77 | inactive
PIP4P2 | 1 | 1.23 | inactive
PIP4P2 | 2 | 0.48 | inactive
PIP4P2 | 3 | 1.82 | inactive
LMBRD1 | 1 | -0.426 | inactive
LMBRD1 | 2 | 0.56 | inactive
LMBRD1 | 3 | -0.915 | inactive
DGKD | 1 | 1.86 | inactive
DGKD | 2 | 0.227 | inactive
DGKD | 3 | 2.77 | inactive
RPS27AP5 | 1 | -1.54 | inactive
RPS27AP5 | 2 | -1.63 | inactive
RPS27AP5 | 3 | -3.23 | inactive
LINC02860 | 1 | 0.175 | inactive
LINC02860 | 2 | -0.958 | inactive
LINC02860 | 3 | 2.03 | inactive
ECH1 | 1 | 1.21 | inactive
ECH1 | 2 | 1.82 | inactive
ECH1 | 3 | -0.0595 | inactive
PRSS33 | 1 | -2.29 | inactive
PRSS33 | 2 | -0.281 | inactive
PRSS33 | 3 | -1.79 | inactive
DDX47 | 1 | -1.29 | inactive
DDX47 | 2 | -1.46 | inactive
DDX47 | 3 | -0.717 | inactive
B3GALT5-AS1 | 1 | -0.363 | inactive
B3GALT5-AS1 | 2 | -2.73 | inactive
B3GALT5-AS1 | 3 | -0.217 | inactive
PPIF | 1 | -0.0662 | inactive
PPIF | 2 | -0.92 | inactive
PPIF | 3 | -0.12 | inactive
